{"sequences": {"note": "The chains behind the UniProt entries cited, without tags or fusion partners. Where a name states a change or a piece, a line headed by the entry shows the natural chain unless it says otherwise. Residues count along the entry.", "UniProt Q8IXJ9": "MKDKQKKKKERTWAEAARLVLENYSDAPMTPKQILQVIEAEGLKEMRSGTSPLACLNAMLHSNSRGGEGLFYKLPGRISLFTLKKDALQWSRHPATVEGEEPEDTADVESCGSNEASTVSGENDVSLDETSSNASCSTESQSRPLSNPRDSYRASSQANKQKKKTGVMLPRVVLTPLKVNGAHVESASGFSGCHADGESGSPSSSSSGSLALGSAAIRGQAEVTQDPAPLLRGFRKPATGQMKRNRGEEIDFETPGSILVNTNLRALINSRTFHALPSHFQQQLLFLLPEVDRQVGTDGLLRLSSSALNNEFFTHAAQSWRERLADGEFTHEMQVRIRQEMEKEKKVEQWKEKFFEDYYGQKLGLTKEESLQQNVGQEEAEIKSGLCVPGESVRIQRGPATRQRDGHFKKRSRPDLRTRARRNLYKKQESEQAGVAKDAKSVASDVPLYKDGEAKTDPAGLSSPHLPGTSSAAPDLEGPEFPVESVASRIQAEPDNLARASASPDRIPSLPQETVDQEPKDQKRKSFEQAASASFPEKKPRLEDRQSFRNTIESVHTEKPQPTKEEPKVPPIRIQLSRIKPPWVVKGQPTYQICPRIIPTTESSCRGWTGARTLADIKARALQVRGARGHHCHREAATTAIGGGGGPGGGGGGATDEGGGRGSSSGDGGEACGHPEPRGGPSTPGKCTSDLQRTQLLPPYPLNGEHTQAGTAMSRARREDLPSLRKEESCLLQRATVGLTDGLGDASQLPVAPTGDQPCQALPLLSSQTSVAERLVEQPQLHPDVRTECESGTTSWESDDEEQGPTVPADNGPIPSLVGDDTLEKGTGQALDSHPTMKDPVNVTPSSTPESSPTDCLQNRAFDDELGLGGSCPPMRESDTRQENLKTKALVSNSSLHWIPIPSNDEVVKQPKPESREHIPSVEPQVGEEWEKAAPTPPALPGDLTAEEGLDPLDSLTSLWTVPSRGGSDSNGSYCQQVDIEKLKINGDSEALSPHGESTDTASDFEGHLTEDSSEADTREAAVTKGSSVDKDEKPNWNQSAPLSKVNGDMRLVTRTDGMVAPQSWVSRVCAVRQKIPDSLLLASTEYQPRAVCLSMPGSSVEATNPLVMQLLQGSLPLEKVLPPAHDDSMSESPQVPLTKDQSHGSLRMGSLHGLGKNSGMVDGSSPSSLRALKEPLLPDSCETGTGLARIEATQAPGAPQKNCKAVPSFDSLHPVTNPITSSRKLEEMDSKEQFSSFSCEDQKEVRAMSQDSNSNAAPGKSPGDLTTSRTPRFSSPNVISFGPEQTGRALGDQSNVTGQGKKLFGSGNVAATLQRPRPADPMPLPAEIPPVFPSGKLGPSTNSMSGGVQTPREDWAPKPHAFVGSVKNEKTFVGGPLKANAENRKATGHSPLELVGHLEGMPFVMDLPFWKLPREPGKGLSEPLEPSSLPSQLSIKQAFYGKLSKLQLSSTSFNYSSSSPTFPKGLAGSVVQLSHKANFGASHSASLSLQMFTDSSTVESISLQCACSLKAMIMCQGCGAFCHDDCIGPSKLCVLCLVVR", "ASXL1^N646-Flag (in U2OS)": "residues 1-646 of Q8IXJ9", "UniProt Q01167": "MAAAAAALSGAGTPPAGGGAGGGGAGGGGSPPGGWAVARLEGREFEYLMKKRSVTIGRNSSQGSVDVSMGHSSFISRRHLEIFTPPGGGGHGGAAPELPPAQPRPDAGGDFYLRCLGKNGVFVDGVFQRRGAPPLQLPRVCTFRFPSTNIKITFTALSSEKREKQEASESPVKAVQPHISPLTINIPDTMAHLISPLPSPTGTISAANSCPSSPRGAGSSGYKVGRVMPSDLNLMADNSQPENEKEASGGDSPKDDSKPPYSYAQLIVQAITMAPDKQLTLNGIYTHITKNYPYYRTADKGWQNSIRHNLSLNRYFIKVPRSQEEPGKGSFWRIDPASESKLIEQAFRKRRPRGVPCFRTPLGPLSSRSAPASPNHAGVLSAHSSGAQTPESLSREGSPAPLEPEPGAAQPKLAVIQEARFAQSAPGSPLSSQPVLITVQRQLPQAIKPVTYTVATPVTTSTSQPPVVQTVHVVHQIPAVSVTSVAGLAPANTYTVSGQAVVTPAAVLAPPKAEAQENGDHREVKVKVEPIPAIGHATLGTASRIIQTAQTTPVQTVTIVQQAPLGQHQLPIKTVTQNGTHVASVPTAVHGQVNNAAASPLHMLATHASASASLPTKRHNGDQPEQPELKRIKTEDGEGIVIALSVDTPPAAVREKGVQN"}, "source": "paper PMC8225741", "key": {"[1]": {"target": "ASXL1^N646-Flag (in U2OS) (human) (UniProt Q8IXJ9)", "assay": "affinity purification with mass spectrometry; whole cell lysate of U2OS cells expressing Flag-tagged full-length or truncated ASXL1; anti-Flag M2-agarose overnight at 4 °C, 6 washes with 300 mmol/L NaCl buffer, in-gel digest, nano LC-MS/MS"}, "[2]": {"target": "ASXL1^FL-Flag (full-length ASXL1, Flag-tagged, in U2OS) (human) (UniProt Q8IXJ9)", "assay": "affinity purification with mass spectrometry; whole cell lysate of U2OS cells expressing Flag-tagged full-length or truncated ASXL1; anti-Flag M2-agarose overnight at 4 °C, 6 washes with 300 mmol/L NaCl buffer, in-gel digest, nano LC-MS/MS"}}, "note": "These are yes or no findings as the source states them, for the method shown. In cells and extracts the contact can be indirect. These calls come from enrichment with a bait or labelling near it, and not all partners need be listed. For some assays here: No binding means not detected with the bait."}
{"substance": "endogenous FOXK2 (from UniProt Q01167 1-660)", "values": [{"measurement": "binding", "setting": "[1]", "value": "no binding"}, {"measurement": "binding", "setting": "[2]", "value": "binds"}]}
